## Primary screen of a compound library

Protein sequences, listed by entry. Tags and fused reporters are not part of them. Residues count along the entry.
UniProt Q4DA54, 1-478: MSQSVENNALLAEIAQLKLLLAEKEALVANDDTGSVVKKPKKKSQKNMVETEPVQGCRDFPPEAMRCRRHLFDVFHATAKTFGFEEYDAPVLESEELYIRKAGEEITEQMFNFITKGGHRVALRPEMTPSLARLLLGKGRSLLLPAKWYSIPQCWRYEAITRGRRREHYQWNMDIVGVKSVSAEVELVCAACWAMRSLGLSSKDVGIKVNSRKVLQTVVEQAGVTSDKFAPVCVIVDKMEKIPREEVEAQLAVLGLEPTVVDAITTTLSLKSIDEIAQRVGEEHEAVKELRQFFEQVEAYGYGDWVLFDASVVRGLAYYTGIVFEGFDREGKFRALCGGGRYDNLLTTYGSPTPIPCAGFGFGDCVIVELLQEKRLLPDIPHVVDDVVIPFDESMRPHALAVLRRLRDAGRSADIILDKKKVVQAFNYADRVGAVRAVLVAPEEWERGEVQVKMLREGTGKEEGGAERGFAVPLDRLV

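Enzyme assay of histidyl-tRNA synthetase; the read-out is not stated. Target: Histidine-tRNA ligase, Trypanosoma cruzi CL Brener (UniProt Q4DA54). Concentration: 30 µM. Direction is inferred from retests: higher values go with stronger inhibition. About 69,000 compounds were tested under these conditions; 0.045% (about 31) showed 50% or more at least once.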

Values are the deposited “Percent Effect”, in %.
The record does not define 0% and 100%; most values in the screen are far below 50% and negative numbers occur (in some assays of this library far below -100).
The compounds are a random part of those screened.

compound,percent effect
O=C(Cc1ccc(S(=O)(=O)C(F)F)cc1)N1CCCC1,2.222
COc1ccc(Cl)cc1NCC(=O)N(Cc1ccncc1)C1CC1,1.604
COc1ccccc1CCC(=O)N1C[C@H](c2ccccc2)[C@@H](N)C1,0.5435
Cc1cc(C2CCC2)nc(N(C)Cc2ncccc2C)n1,3.093
OCC1CCN(c2ccc(NCc3ccsc3)nc2)CC1,5.978
CC(C)(C)OC(=O)N[C@@H]1C[C@@H](O)CN(C(=O)c2ccc(F)cc2)C[C@H]1O,4.651
O=C(NCc1cccnc1)[C@@H]1C[C@H]2[C@H](CCN2c2ncc(F)cn2)O1,7.143
Cn1cccc1-c1nnc(C2(c3ccc4c(c3)OCO4)CCOCC2)o1,-0.5128
COc1cccc(CCC2CCCN(C(=O)C3=NN(C)C(=O)CC3)C2)c1 (stereo unspecified),0.8333
CC(NC(=O)CCc1cccc(OC2CCCC2)c1)c1nncn1C (stereo unspecified),0
CCCN1CCCC2(CCN(Cc3cncn3C3CCCCC3)C2)C1=O (stereo unspecified),1.932
Cc1ccccc1CN(CCN(C)C)Cc1ccccc1C(=O)O,2.4
CC1CCN(c2cncc(CCC3CCCN3)n2)CC1 (stereo unspecified),5.303
CC(C)C(C)(C#N)NC(=O)CN1CCCN(Cc2ccccc2F)CC1 (stereo unspecified),7.447
COc1c(C2CCCN2c2ncnc3c2cnn3C)c(C)nn1C (stereo unspecified),8.021
Cc1nc(C)n(C2CCCN(C(=O)CCOc3cccc(F)c3)C2)n1 (stereo unspecified),-4.598
CCS(=O)(=O)N1CCN(c2cc(-n3cnc(C)c3C)nc(C)n2)CC1,2.041
Cc1nn(C)c(C)c1C1CCCN1C(=O)CCNc1ncccn1 (stereo unspecified),0
CC(=O)N[C@@H]1Cc2ccccc2[C@H]1Nc1ccncn1,3.448
O=C1CC2(CNCCN(C(=O)Nc3ccccc3)C2)CN1 (stereo unspecified),6.796
CCCC(O)CN1CC(C)(C)CN(C(=O)c2ccc(SC)cc2)CC1=O (stereo unspecified),3.468
COCCN1CC2(CCC1=O)CCN(Cc1cc(F)ccc1Cl)CC2,5.587
COc1ccccc1CNC(=O)CN(C)C(C)c1ccncn1 (stereo unspecified),9.756
CC(C)CN1C(=O)CO[C@@H]2CN(C(=O)NC(C)C)C[C@H]21,7.527
Cn1cccc1CN(C(=O)CC(CC(=O)O)c1cccs1)C1CC1 (stereo unspecified),0.5291
O=C1[C@H]2CN(Cc3ccccc3)C[C@H]2CN1c1cncnc1,5.941
CN(C)c1ncc(-c2ccc(C(N)=O)cc2)c(C2CNCCO2)n1 (stereo unspecified),0.8571
COCc1nc(-c2ccnc(N3CCNCC3)n2)no1,13.54
CC1CCN(CCNC(=O)C2CCN(S(N)(=O)=O)CC2)CC1,2.439
Cc1nc(C2(NCC(=O)NC(=O)NCC(F)(F)F)CCCCC2)no1,-1.508
O=C(NCCC1CCN(CC(F)(F)F)CC1)C1CCOC1 (stereo unspecified),4.867
C[S+]([O-])CCNC(=O)N1CCSC(C)(C)C1 (stereo unspecified),5.319
CCc1nnsc1C(=O)N1CCCC(COc2ccc(F)cc2)C1 (stereo unspecified),3.261
CC1CCN(CCNC(=O)Nc2ccc(F)cc2Cl)CC1,2.956
Cc1cc(C)n(CC2CCCN2CC(=O)Nc2nncs2)n1 (stereo unspecified),6.122
O=C(CCn1cccn1)NCCOc1cccc(Cl)c1,8.04
CC(C)c1cnc(CN2CCCC(c3ccn[nH]3)C2)o1 (stereo unspecified),8.247
Cn1cc(C(=O)Nc2ccc3c(c2)CN(C(=O)C2CC2)CC3)nn1,5
CC(C)(C)c1cn2nc(N3CCCC3Cn3cncn3)sc2n1 (stereo unspecified),-2.29
CS(=O)(=O)NCC1OCCc2cn(CC3CC3)nc21 (stereo unspecified),-1.149
CN(C)Cc1cc(=O)n2c(n1)CN(C(=O)Cc1ccsc1)CCC2,1.674
O=S(=O)(CCCS(=O)(=O)c1ccc2c(c1)OCCCO2)c1ccccc1,9.392
COc1ccc(C2=C(C)C(N3CCc4ccccc4C3)=NS2(=O)=O)cc1,-16.3
CC(C)S(=O)(=O)c1ccccc1C(=O)NCC1Cc2ccccc2O1 (stereo unspecified),0
CC(C)CCC(=O)N1CC[C@@H]2[C@H](CC1)N(S(C)(=O)=O)CCS2(=O)=O,8.173
NC(=O)NC(=O)CCN1CCCN(c2nccs2)CC1,0.3774
Cc1ccc(-c2nc3cc(S(=O)(=O)N4CCCC4)ccc3n2C)o1,4.878
O=C(NC1CC1)[C@H]1C[C@H]2OCC[C@H]2N(CC2CC2)C1,3.784
Cc1nc(CNC(=O)Nc2c(C)n[nH]c2C)cs1,2.762
O=C(Nc1ccc(OC2CCCC2)cc1)C1CCCN1c1nccs1 (stereo unspecified),6.745
c1cc(-c2nnn3c2COC(CNCc2nccs2)C3)ccn1 (stereo unspecified),2.4
Cc1[nH]c(-c2ccccc2)nc1C(=O)N1CCC(O)(CO)CC1,5.844
Cc1cc(Cl)ccc1C(=O)N1C[C@H](C2CC2)[C@@H](N)C1,1.807
CC(C)(C)Oc1ccccc1CNC(=O)C1CCCOC1 (stereo unspecified),11.49
FC(F)(F)c1cccc(CNc2nccc(C(F)(F)F)n2)c1,-1.453
CS(=O)(=O)NCC1CCCCN1C(=O)Nc1cccnc1N1CCCC1 (stereo unspecified),1.087
CN1CCC2(Cc3ccccc3CN(C(=O)Cc3cccc(Cl)c3)C2)C1 (stereo unspecified),10.06
Cc1cc2nc(C(C)C)cc(N3CCC(N(C)C)C3)n2n1 (stereo unspecified),7.921
COc1ccc(OCCNC(=O)c2ccc3c(=O)[nH][nH]c(=O)c3c2)cc1,7.595
O=C(NC1CCS(=O)(=O)C1)c1sccc1OC(F)F (stereo unspecified),4.233
COCCC(=O)Nc1cnn(COc2ccc(F)cc2Cl)c1,-1.754
O=C(NC1CC1)c1cccc(S(=O)(=O)NCCc2nc(C3CC3)no2)c1,2.762
COCCN1CCN(Cc2cnc(C(C)C)nc2)CC1,2.239
Cc1ccnc(C2CCN(C(=O)c3cnn(C)c3)CC2)n1,8.857
O=C(C1CCCOC1)N(CC(F)F)c1cccc(Cl)c1 (stereo unspecified),0
CCn1ccc(NC(=O)CN2C(=O)C(C)(C)c3ccccc32)n1,7.921
CN(C)C(=O)CC1CC2(CCN(Cc3ccsc3)CC2)c2ccccc21 (stereo unspecified),2.439
CN(C)[C@@H]1COC[C@@H]2CN(Cc3ccc4c(c3)OCO4)C[C@@H]21,2.674
Fc1cccc(O[C@@H]2C[C@H]3CN(Cc4ccccn4)CCN3C2)c1,3.226
CC1CN(c2ccc(C#N)cn2)CCN1c1ccc2nncn2n1 (stereo unspecified),5.263
Cc1ccc(C)c(S(=O)(=O)NC(=O)COc2cccc(C#N)c2)c1,-1.724
CS(=O)(=O)c1nccn1Cc1ccc(OC(F)F)cc1,0
Cc1cc(NC(=O)CN2CCn3c(nnc3C(C)C)C2)n(C)n1,4.734
CNS(=O)(=O)CC(=O)NC(C)Cc1ccc(-c2ccccc2)cc1 (stereo unspecified),0.4878
Cc1ccc(CNC(=O)Nc2nnc(C3CC3)s2)n1C,10.64
CCCc1nnc(N2CC[C@@](O)(C3CCOCC3)[C@H](C)C2)s1,-2.424
Cc1cnc(N2CCOC3(CCCN(C)C3)C2)nc1 (stereo unspecified),5.882
CCOc1ccccc1C(=O)NS(=O)(=O)c1ccc2c(c1)OCCCO2,-3.03
CCC(O)CN1CCN(C(=O)c2cc3ccccc3n2CC)CC1 (stereo unspecified),6.286
O=C(C1CCS(=O)(=O)CC1)N1C[C@H]2CC[C@@H]1CN(Cc1ccccc1)C2,-0.5236
CC(C)CN1CC[C@@H]2[C@H](CC1)N(S(C)(=O)=O)CCS2(=O)=O,0.4808
C[C@@H]1CN2C[C@H](O)CC2CN1Cc1ccncc1 (stereo partly specified),11.54
COc1ccc(CN2C[C@H]3CN(Cc4ccncc4)C(=O)[C@H]3C2)cc1,5.825
COc1cccc(C(=O)N2CCCC(c3cc(C)[nH]n3)C2)c1OC (stereo unspecified),-1.504
O=C(CC1NC(N2CCc3ccccc3C2)=NC1=O)Nc1ccccc1 (stereo unspecified),7.292

For reference, 10 entries once more:

compound,percent effect
Cn1cccc1CN(C(=O)CC(CC(=O)O)c1cccs1)C1CC1 (stereo unspecified),0.5291
Cc1[nH]c(-c2ccccc2)nc1C(=O)N1CCC(O)(CO)CC1,5.844
O=C(NC1CCS(=O)(=O)C1)c1sccc1OC(F)F (stereo unspecified),4.233
COCc1nc(-c2ccnc(N3CCNCC3)n2)no1,13.54
CC(C)C(C)(C#N)NC(=O)CN1CCCN(Cc2ccccc2F)CC1 (stereo unspecified),7.447
Cc1ccccc1CN(CCN(C)C)Cc1ccccc1C(=O)O,2.4
COc1cccc(C(=O)N2CCCC(c3cc(C)[nH]n3)C2)c1OC (stereo unspecified),-1.504
CC(C)(C)OC(=O)N[C@@H]1C[C@@H](O)CN(C(=O)c2ccc(F)cc2)C[C@H]1O,4.651
CN(C)c1ncc(-c2ccc(C(N)=O)cc2)c(C2CNCCO2)n1 (stereo unspecified),0.8571
CN(C)Cc1cc(=O)n2c(n1)CN(C(=O)Cc1ccsc1)CCC2,1.674

The values are deposited in ChEMBL (CHEMBL3988442, “University of Dundee, Small-Polar-MMV Screening Library” (2021)).